The series is described as follows: general procedure: Fmoc solid-phase peptide synthesis; Rink Amide AM resin; HBTU/HOBt/DIPEA; HATU/DIPEA for unnatural amino acids. The note with it: whole synthesis, scale gram-scale.

Strings that start with PEPTIDE1 are HELM notation: dots part the residues, brackets hold end groups and non-standard residues.

Consider “PEPTIDE1{[dR].[dS].C.[Phe4F].R.L.P.C.H.Q.L.[bhArg].C.[am]}|CHEM1{[TATA]}$PEPTIDE1,CHEM1,3:R3-1:R1|PEPTIDE1,CHEM1,8:R3-1:R2|PEPTIDE1,CHEM1,13:R3-1:R3$$$V2.0”, for which the “final purity (method not given)” value is on record as above 95% and the isolated yield result is listed as “greater than 50%”.
